Measurements: patent US20250382331A1, “Carrier Peptide Fragment and Use Thereof” (TOAGOSEI CO., LTD., priority 2022, published 2025)
Some entries share one result that the patent states for a list of compounds.

Test system: WS-1 cells
Test: Evaluation on cell toxicity of carrier peptide fragment (CCK-8)
Assay type: cell-based, human
Conditions: 24 hours; for cell toxicity: concentration as high as 100 M (so in the source); for cell viability compared to the example in which 1.67% of DMSO was added: sample concentration 100 μM

| Substance | cell toxicity | cell viability compared to the example in which 1.67% of DMSO was added |
| --- | --- | --- |
| Ac-KKRTLRKSSNRKKR-FAM (N-acetyl, C-terminal FAM) [Example 2] | hardly observed | did not decrease |
| Ac-KKRTLRKSNNRKKR-FAM (N-acetyl, C-terminal FAM) [Example 3] | hardly observed | did not decrease |
